The text below walks through data of patent US20070142298A1 (SANKT-PETERBURGSKAYA OBSCHESTVENNAYA ORGANIZATSIYA …, priority 2003, published 2007).

*: point of attachment. Cbz = O=C(OCc1ccccc1)*; OBn = c1ccc(CO*)cc1

The nature of the data set: general procedure: solution-phase peptide synthesis; N,N'-dicyclohexylcarbodiimide / N-oxybenzotriazol.

Substance Cbz-K(Cbz)E(OBn)D(OBn)P-OBn returned a step yield (coupling step) of 95%.
H-Lys-Glu-Asp-Trp-NH2: under “late stage modification step”, the step yield was found to be 90%. The “final HPLC purity” value (purification step, 220 nm) was 97.48%.
